In PubChem BioAssay AID2685 (National Center for Advancing Translational Sciences (NCATS), 2010):
In all, about 320,000 compounds went through this assay and about 2,100 (0.66%) were called active. The inconclusive results got no clear call from the source; some entries with a clear call stand among them for comparison. The call rests on the fitted dose curve; in most records, active means well fitted inhibition curve with a large enough effect in the signal ratio, with a control signal flat (not every such curve was filed as active); inconclusive means small, poorly fitted or top-dose-only effect, or effect the other way, or a change in a side signal; inactive means flat fitted curve, though single readings scatter; the % refers to the signal ratio. Potencies beside an inconclusive call are fits to weak or partial responses and may not hold up.

Experiment: qHTS Assay for Lipid Storage Modulators in Drosophila S3 Cells
Conditions: BODIPY lipid droplet fluorescence, 18-24 h, cells fed with added oleic acid; lipid storage change, negative = inhibition: at 46.1 µM (top of the series) unless noted
Procedure, shortened: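 Laser-scanning cytometry quantifies lipid droplet accumulation (500–530 nm total intensity; droplet/cell object ratio) in oleic acid-fed (400 uM added) Drosophila S3 cells treated with a concentration series. 20 uM Triacsin C defined 100% inhibition.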
On the % scale 0 is the no-effect control and ±100 the full control effect; potency means the concentration at half of the fitted maximal effect.

Row | Compound | lipid storage change, negative = inhibition | Potency
1 | COc1cc(C(=O)Nc2ccc(N(C)C)cc2)cc(OC)c1OC | inconclusive: -28.6% | 
2 | Cc1cc(=O)oc2cc(OCC(=O)OCC(=O)N(CCC#N)c3ccccc3)ccc12 | inconclusive: 0.84% | 
3 | CC1(C)CC(=O)C2=C(C1)Nc1[nH]c(=S)[nH]c(=O)c1C2c1ccccc1 (stereo not given) | inconclusive: -43.4% [at 0.0737 µM] | 
4 | O=C1COc2ccc(C(=O)COC(=O)/C=C/c3ccco3)cc2N1 | inconclusive: -18.5% | 
5 | N#Cc1c(-c2ccccc2F)cc(C2CC2)nc1SCC(=O)c1cccs1 |  | inconclusive: 20.6 µM [falling, single point]
6 | CCOC(=O)C1CN(S(=O)(=O)c2ccc(F)cc2)C1 | inconclusive: 11.7% | 
7 | COc1ccc(C(=O)Nc2ccccc2C(=O)N2CCOCC2)cc1OC | inconclusive: 4.56% | 
8 | Cc1cc(N2CCOCC2)nc(SCc2ccc(Cl)cc2Cl)n1 | inconclusive: 25.1% | 
9 | CC(=O)Nc1ccc(C2NC(=O)c3ccccc3O2)cc1 (stereo not given) |  | inconclusive: 0.206 µM [falling, full curve, poor fit]
10 | C=CCNC(=S)NCC | inconclusive: 47.8% | 
11 | O=C(CN1CCN(C(=O)CNC(=O)c2ccc3c(c2)OCO3)CC1)Nc1cccc(F)c1 |  | inconclusive: 29.1 µM [activator, single point]
12 | Cc1ccc(C)c(N2CCN(C(=O)c3cc4ccccc4oc3=O)CC2)c1 | inconclusive: -26.2% | 
13 | CCOC(=O)c1ccccc1NC(=O)CSC(C)C(=O)Nc1cc(C)on1 (stereo not given) | inconclusive: -43.6% | 
14 | NC(=O)c1c(NC(=O)c2ccccc2F)sc2c1CCCC2 |  | active: 1.64 µM
15 | Cc1ccc(/C=C/C(=O)Nc2ccc(S(=O)(=O)Nc3cc(C)nc(C)n3)cc2)cc1 | inconclusive: 105% | 
16 | COc1cc(/C=C(\C#N)C(=O)Nc2ccccc2)ccc1OCCN1CCOCC1 |  | inconclusive: 29.1 µM [falling, single point]
17 | CCC1CN(C(=O)N2CCC(C(=O)NCc3ccc(OC)cc3OC)CC2)c2ccccc2O1 (stereo not given) | inactive | 
18 | O=c1[nH]c(C(F)(F)F)nc2c1nnn2Cc1ccccc1F | inconclusive: -18.5% | 
19 | O=C(CN(C(=O)c1csnn1)c1ccc(F)c(Cl)c1)NCc1ccc2c(c1)OCO2 |  | inconclusive: 0.0517 µM [activator, full curve]
20 | O=C1C(C=NCc2cccnc2)=C(O)c2ccccc21 | inconclusive: 17.6% | 
21 | O=C(O)CCCNS(=O)(=O)c1cccc2nsnc12 | inconclusive: -187% | 
22 | CCc1ccc(C(=O)NNc2ccc(S(N)(=O)=O)cc2)cc1 | inconclusive: -12.9% | 
23 | COc1cc(C(=O)Nc2ccc(-n3cnnn3)c(C)c2)cc(OC)c1OC |  | inconclusive: 25.9 µM [falling, partial curve, poor fit]
24 | CN1CCN(c2ccc(NC(=O)c3ccc4c(c3)[nH]c(=O)n4Cc3ccc(F)cc3)cc2)CC1 |  | inconclusive: 29.1 µM [activator, single point]
25 | COc1ccc(N(CC(=O)NC2CCCC2)C(=O)c2ccc(C)s2)c(OC)c1 |  | inconclusive: 0.326 µM [falling, full curve, poor fit]

Row | Compound | lipid storage change, negative = inhibition | Potency
26 | CN(C)c1ccc(C(CNC(=O)c2cccs2)N(C)C)cc1 (stereo not given) | inconclusive: -7.63% | 
27 | CCOCCn1[nH]c2ccccc2c1=O |  | inconclusive: 0.146 µM [falling, full curve, poor fit]
28 | Cc1cc(C)c(C)c(S(=O)(=O)NCC(=O)Nc2ccc(F)cc2)c1C | inconclusive: -37.1% | 
29 | CCOc1ccc(CCNC(=O)CN(C)S(=O)(=O)c2ccc3c(c2)CCC(=O)N3)cc1OCC | inconclusive: 13.1% | 
30 | CCNC(=S)N1CCN(CCN=CC2=C(O)CC(c3ccco3)CC2=O)CC1 (stereo not given) |  | inconclusive: 6.51 µM [falling, single point]
31 | O=C(Cc1ccccc1)NCCN1CCCC1 | inconclusive: -11.5% | 
32 | CCOc1ccc(C2=Nc3ccc(Br)cc3C(c3ccc(N4CCOCC4)cc3)=NN2)cc1 |  | inconclusive: 3.66 µM [falling, full curve, poor fit]
33 | CN1C(=O)/C(=C/c2cccc([N+](=O)[O-])c2)C(=O)N1c1ccccc1 | inconclusive: -36.7% | 
34 | NS(=O)(=O)c1ccc(NC(=O)CSc2nc3ccccc3[nH]2)cc1 | inconclusive: 0.591% | 
35 | N/C(=N\OC(=O)c1ccc(=O)n(Cc2ccccc2)c1)c1ccccn1 | inconclusive: -33.3% | 
36 | O=C(O)c1ccc(N2C(=O)CC(N3CCN(c4cccc(Cl)c4)CC3)C2=O)cc1 (stereo not given) | inactive | 
37 | CC1(C(=O)OCC(=O)NNC(=O)COc2ccc(Cl)cc2)CC1(Cl)Cl (stereo not given) |  | inconclusive: 18.4 µM [activator, partial curve, poor fit]
38 | Cc1ccc2[nH]c(O)c(N=NC(=O)C(C)n3cnc4ccccc4c3=O)c2c1 (stereo not given) |  | inconclusive: 29.1 µM [rising, single point]
39 | COc1cccc(OC)c1-c1nn2c(-c3ccccc3Cl)nnc2s1 | inconclusive: 54% | 
40 | CC(C)[C@H](NC(=O)c1ccccc1F)C(=O)NCc1ccc(S(N)(=O)=O)cc1 | inconclusive: 20.9% | 
41 | Cc1c(C(=O)OCC(=O)NCc2ccc3c(c2)OCO3)cccc1[N+](=O)[O-] |  | inconclusive: 0.58 µM [falling, single point]
42 | O=C(O)c1ccccc1NC(=O)C1CCCO1 (stereo not given) |  | active: 23.1 µM
43 | COc1ccc(-n2c(Cc3cc(=O)[nH]c(=O)[nH]3)nnc2SCC(=O)N2CCC(C)CC2)cc1 | inconclusive: 1.98% | 
44 | O=C(c1ccccc1[N+](=O)[O-])N1CCN(c2ccc(N3CCOCC3)nn2)CC1 | inconclusive: 5.41% | 
45 | O=C(CN1CCCN(Cc2ccc(F)cc2Cl)C1=O)NC1CCCCCC1 | inconclusive: 75.6% | 
46 | Fc1cccc(Cl)c1Cn1nnc(-c2ccc3c(c2)OCO3)n1 | inconclusive: -12% | 
47 | CCC(C)NC(=O)C1CCN(S(=O)(=O)c2ccc(OC)cc2)CC1 (stereo not given) |  | inconclusive: 29.1 µM [falling, partial curve, poor fit]
48 | C/C(=N\NC(=O)CCc1ccc(S(=O)(=O)N2CCOCC2)cc1)c1ccc(Br)cc1 | inconclusive: -64.2% | 
49 | O=C(COC(=O)COc1ccccc1)Nc1ncc([N+](=O)[O-])s1 |  | inconclusive: 6.51 µM [activator, single point]
50 | COc1ccccc1Nc1nnc(SCc2cc(=O)n3cc(C)ccc3n2)s1 |  | inconclusive: 0.651 µM [activator, full curve]

For reference, part of the list above.
Row | Compound | lipid storage change, negative = inhibition | Potency
14 | NC(=O)c1c(NC(=O)c2ccccc2F)sc2c1CCCC2 |  | active: 1.64 µM
15 | Cc1ccc(/C=C/C(=O)Nc2ccc(S(=O)(=O)Nc3cc(C)nc(C)n3)cc2)cc1 | inconclusive: 105% | 

The listing continues:

Row | Compound | lipid storage change, negative = inhibition | Potency
51 | COCC(C)NC(=S)N1CCN(c2ccccc2Cl)CC1 (stereo not given) | inconclusive: 37.7% | 
52 | COCCN(C(=O)CCC(=O)Nc1cc(C)on1)C(C(=O)NC1CCCC1)c1ccc(C(C)C)cc1 (stereo not given) |  | inconclusive: 6.51 µM [falling, single point]
53 | CCc1nn2cc(C(=O)c3cc(Cl)ccc3O)cnc2c1-c1ccc(F)cc1 |  | inconclusive: 29.1 µM [cytotoxic, single point]
54 | CCCCCCNCCn1cnc2c(N)ncnc21 | inconclusive: 9.82% | 
55 | O=C(NCCC1=CCCCC1)C1CCC(=O)N(Cc2ccc(Cl)cc2)C1 (stereo not given) |  | inconclusive: 29.1 µM [falling, single point]
56 | Cn1c(C(=O)N2CCN(c3ccccc3)CC2)cc2cc(Cl)ccc21 |  | inconclusive: 13 µM [falling, partial curve]
57 | O=c1c2ccccc2nc(-c2ccco2)n1-c1nc2ccccc2s1 |  | inconclusive: 0.58 µM [activator, full curve, poor fit]
58 | O=C(Nc1ccc2c(c1)OCO2)[C@@H]1CCCN1S(=O)(=O)c1cccc2cccnc12 | inconclusive: 10.6% | 
59 | Cc1cc(NCc2cccnc2)nc(N)n1 | inconclusive: 118% | 
60 | O=C(CCC(=O)c1ccc(Br)cc1)Nc1ccc(F)cc1 | inconclusive: 31.7% | 
61 | Cc1ccc(S(=O)(=O)Cn2nnnc2C(c2ccc(F)cc2)N2CCCCC2)cc1 (stereo not given) | inconclusive: 15.4% | 
62 | COc1ccc(N(C(=O)c2cc3ccccc3oc2=O)C2C=CS(=O)(=O)C2)cc1 (stereo not given) | inconclusive: 2.99% | 
63 | COC(=O)c1ccc(C2C(C#N)=C(N)Oc3cc(O)ccc32)cc1 (stereo not given) |  | inconclusive: 1.03 µM [activator, full curve, poor fit]
64 | CC1CCCN(Cc2cnc(Cl)s2)C1 (stereo not given) | inconclusive: -9.52% | 
65 | COc1cccc(-c2cc(C(=O)Nc3ccc([N+](=O)[O-])cn3)c3ccccc3n2)c1 | inconclusive: 22.2% | 
66 | O=C(CNC(=O)c1ccco1)N=Nc1c(O)n(CCc2ccccc2)c2ccccc12 | inconclusive: 7.18% | 
67 | COc1ccc(OC)c(/C=C/C(=O)N2CCN(S(=O)(=O)c3cc(C)ccc3C)CC2)c1 | inactive | 
68 | CCCC(=O)Nc1cccc(Oc2nc(C)cc(C)c2C#N)c1 | inconclusive: -87.7% | 
69 | Cc1cc(-c2nn(-c3ccccc3F)cc2CN2CCCC(C(N)=O)C2)c(C)s1 (stereo not given) | inconclusive: 5.84% | 
70 | O=C(NC1CCCCC1)C1CCN(c2nnnn2-c2ccccc2)CC1 | inconclusive: 18% | 
71 | CN(Cc1cccnc1)C(=O)c1cc(COc2ccc3c(c2)CCCC3)on1 |  | inconclusive: 29.1 µM [cytotoxic, single point]
72 | Cc1cccc(Nc2nc(Cl)ncc2F)c1C | inconclusive: 33.5% | 
73 | CC1CCCCN1C(=O)Cn1c(=O)n(C2CCCCC2)c(=O)c2ccccc21 (stereo not given) |  | inconclusive: 20.6 µM [activator, partial curve, poor fit]
74 | O=C(CC(Cc1ccccc1)C(=O)O)Nc1ccc(F)cc1 (stereo not given) | inconclusive: 8.02% | 
75 | O=C(CSc1nc2[nH]ncc2c(=O)[nH]1)NCc1ccccc1Cl | inconclusive: -13.9% | 
